The list shows only some results of the screen, not a fair sample: it is rich in T/C values a quarter to a half above the control, in often repeated tests (any T/C) and in doses without a T/C. Further doses and runs are listed elsewhere. T/C: endpoint of the treated group in % of that of the vehicle group. Some entries give survivors of the animals treated and no T/C: the source holds a T/C of zero for them, seemingly a mark for toxic or unscored doses. Some doses without a T/C left all or most animals alive at the check, yet need not have been tolerated: the source hardly ever lists a survival T/C far under the control, and the zero likely stands for such cases as well. Survivors were counted at the toxicity check, usually on the fifth day, unless a day is given; later deaths do not show. Schedule codes are those of the source, taken here to give the interval after Q, in days (D) or hours (H), and the number of doses after X. Some doses were run more than once; the results are listed from low to high. Some schedules carry Z or #; the key to these is not given. Where survival is the endpoint, the PubChem record calls one and a half times the control and up active, and a quarter to a half above the control has no call in these data; cut-offs in other NCI protocols can differ. Some T/C values are followed by the survivors on the day toxicity was checked, most often the fifth; where none is given, no animal had died by that day.
Test system: L1210 leukemia ip in BDF1 mice, survival T/C
Experiment: NCI In Vivo Anticancer Drug Screen. Data for tumor model L1210 Leukemia (intraperitoneal) in B6D2F1 (BDF1) mice
Conditions: higher T/C = longer survival
[1] = T/C endpoint: mean survival time, dose: 100.0 mg/kg/injection, schedule: Q01DX009 (ip), vehicle: Klucel (hydroxypropylcellulose) (HPC)
[2] = T/C endpoint: mean survival time, dose: 400.0 mg/kg/injection, schedule: Q01DX009 (ip), vehicle: Klucel (hydroxypropylcellulose) (HPC)
[3] = T/C endpoint: mean survival time, dose: 400.0 mg/kg/injection, schedule: Q01DX009 (ip), vehicle: saline with Tween-80
[4] = T/C endpoint: mean survival time, dose: 100.0 mg/kg/injection, schedule: Q04DX003 (ip), vehicle: saline with Tween-80
[5] = T/C endpoint: mean survival time, dose: 200.0 mg/kg/injection, schedule: Q04DX003 (ip), vehicle: saline with Tween-80
[6] = T/C endpoint: mean survival time, dose: 400.0 mg/kg/injection, schedule: Q04DX003 (ip), vehicle: saline with Tween-80
[7] = T/C endpoint: mean survival time, dose: 150.0 mg/kg/injection, schedule: Q01DX001 (ip), vehicle: saline
[8] = T/C endpoint: mean survival time, dose: 400.0 mg/kg/injection, schedule: Q04DX002 (ip), vehicle: saline
[9] = T/C endpoint: mean survival time, dose: 200.0 mg/kg/injection, schedule: Q04DX003 (ip), vehicle: saline
[10] = T/C endpoint: mean survival time, dose: 400.0 mg/kg/injection, schedule: Q04DX003 (ip), vehicle: saline

CCN(CC)CCN(CC)C(=S)Nc1ccccc1
survivor count [1]: 0 of 6 | survivor count (T/C endpoint: mean survival time, dose: 200.0 mg/kg/injection, schedule: Q01DX009 (ip), vehicle: Klucel (hydroxypropylcellulose) (HPC)): 1 of 6 | survivor count [2]: 0 of 6

CC(CNC(=O)CCBr)NC(=O)CCBr (centres undefined)
T/C (T/C endpoint: mean survival time, dose: 76.0 mg/kg/injection, schedule: Q01DX Z (ip), vehicle: carboxymethylcellulose (CMC)): 125 % of control | T/C (T/C endpoint: mean survival time, dose: 100.0 mg/kg/injection, schedule: Q01DX009 (ip), vehicle: saline): 135 % of control | T/C (T/C endpoint: mean survival time, dose: 113.0 mg/kg/injection, schedule: Q01DX Z (ip), vehicle: carboxymethylcellulose (CMC)): 134 % of control | T/C (T/C endpoint: mean survival time, dose: 170.0 mg/kg/injection, schedule: Q01DX Z (ip), vehicle: carboxymethylcellulose (CMC)): 148 % of control [5 of 6 alive] | survivor count (T/C endpoint: mean survival time, dose: 254.0 mg/kg/injection, schedule: Q01DX Z (ip), vehicle: carboxymethylcellulose (CMC)): 6 of 7

O=C(O)C(O)c1cccc2ccccc12 (centres undefined)
survivor count [3]: 5 of 6

CN(C)N(P(N)(Cl)(c1ccccc1)c1ccccc1)P(N)(Cl)(c1ccccc1)c1ccccc1
survivor count (T/C endpoint: mean survival time, dose: 100.0 mg/kg/injection, schedule: Q01DX001 (ip), vehicle: steroid suspending solution): 2 of 4 | survivor count (T/C endpoint: mean survival time, dose: 200.0 mg/kg/injection, schedule: Q01DX001 (ip), vehicle: steroid suspending solution): 0 of 4 | survivor count (T/C endpoint: mean survival time, dose: 400.0 mg/kg/injection, schedule: Q01DX001 (ip), vehicle: steroid suspending solution): 0 of 4

O=C(O)/C(=C\c1ccncc1)c1cccc2ccccc12
survivor count [1]: 6 of 6

CNc1c2c(nc3ccccc13)CCCC2
survivor count [4]: 0 of 6 | survivor count [5]: 0 of 6 | survivor count [6]: 0 of 6

CCCCCCCNc1ccc(S(=O)(=O)c2ccc(NCCCCCCC)c([N+](=O)[O-])c2)cc1[N+](=O)[O-]
survivor count (T/C endpoint: mean survival time, dose: 200.0 mg/kg/injection, schedule: Q01DX005 (ip), vehicle: DMSO): 3 of 3

O=[N+]([O-])c1cccc(Cl)c1F
survivor count (T/C endpoint: mean survival time, dose: 400.0 mg/kg/injection, schedule: Q04DX002 (ip), vehicle: Klucel (hydroxypropylcellulose) (HPC)): 0 of 3

N#CSCc1ccc(CSC#N)c(Br)c1
survivor count (T/C endpoint: mean survival time, dose: 150.0 mg/kg/injection, schedule: Q01DX009 (ip), vehicle: saline): 6 of 6 | survivor count (T/C endpoint: mean survival time, dose: 300.0 mg/kg/injection, schedule: Q01DX009 (ip), vehicle: saline): 0 of 6

COc1cc(C=Nc2ccc(-c3csc(COc4ccccc4)n3)c(Cl)c2)ccc1N(CCCl)CCCl
T/C (T/C endpoint: mean survival time, dose: 44.4 mg/kg/injection, schedule: Q01DX001 (ip), vehicle: carboxymethylcellulose (CMC)): 127 % of control | survivor count (T/C endpoint: mean survival time, dose: 66.0 mg/kg/injection, schedule: Q01DX015 (ip), vehicle: carboxymethylcellulose (CMC)): 4 of 6 | T/C (T/C endpoint: mean survival time, dose: 66.6 mg/kg/injection, schedule: Q01DX001 (ip), vehicle: carboxymethylcellulose (CMC)): 139 % of control | T/C (T/C endpoint: mean survival time, dose: 100.0 mg/kg/injection, schedule: Q01DX001 (ip), vehicle: carboxymethylcellulose (CMC)): 127 % of control | T/C (T/C endpoint: mean survival time, dose: 100.0 mg/kg/injection, schedule: Q01DX001 (sc), vehicle: carboxymethylcellulose (CMC)): 131 % of control | survivor count (T/C endpoint: mean survival time, dose: 100.0 mg/kg/injection, schedule: Q01DX015 (ip), vehicle: carboxymethylcellulose (CMC)): 5 of 6 | T/C (T/C endpoint: mean survival time, dose: 150.0 mg/kg/injection, schedule: Q01DX001 (ip), vehicle: carboxymethylcellulose (CMC)): 133 % of control | survivor count (T/C endpoint: mean survival time, dose: 400.0 mg/kg/injection, schedule: Q01DX001 (sc), vehicle: carboxymethylcellulose (CMC)): 0 of 4

CC(C)C(=O)Nc1cccnc1
survivor count (T/C endpoint: mean survival time, dose: 75.0 mg/kg/injection, schedule: Q01DX001 (ip), vehicle: saline): 3 of 6 | survivor count [7]: 0 of 6 | survivor count (T/C endpoint: mean survival time, dose: 300.0 mg/kg/injection, schedule: Q01DX001 (ip), vehicle: saline): 0 of 6

C[n+]1ccccc1C=O
survivor count [8]: 2 of 3

N#CC(C#N)=NNc1cccc(Cl)c1Cl
survivor count (T/C endpoint: mean survival time, dose: 20.0 mg/kg/injection, schedule: Q01DX009 (ip), vehicle: saline with Tween-80): 3 of 6 | survivor count [4]: 0 of 6 | survivor count [5]: 0 of 6 | survivor count [6]: 0 of 6

COC(=O)C(C(=O)OC)C(c1ccccc1)C(Br)(C(=O)OC)C(=O)OC (centres undefined)
survivor count [3]: 5 of 6

O=C(Nc1cccc(Cl)c1)SCCSC(=O)Nc1cccc(Cl)c1
survivor count (T/C endpoint: mean survival time, dose: 400.0 mg/kg/injection, schedule: Q01DX001 (ip), vehicle: saline with Tween-80): 6 of 6

CCCCNC(=O)OC
survivor count (T/C endpoint: mean survival time, dose: 400.0 mg/kg/injection, schedule: Q04DX003 (ip), vehicle: Klucel (hydroxypropylcellulose) (HPC)): 2 of 6

Cc1nnnn1C12CC3CC(CC(C3)C1)C2
survivor count (T/C endpoint: mean survival time, dose: 100.0 mg/kg/injection, schedule: Q01DX001 (ip), vehicle: saline): 1 of 6 | survivor count (T/C endpoint: mean survival time, dose: 200.0 mg/kg/injection, schedule: Q01DX001 (ip), vehicle: saline): 1 of 6 | survivor count (T/C endpoint: mean survival time, dose: 400.0 mg/kg/injection, schedule: Q01DX001 (ip), vehicle: saline): 0 of 6

C#CCOCCC#N
survivor count [8]: 3 of 3

Cc1cc[n+]2cc3ccc4ccccc4c3c(C)c2c1
survivor count (T/C endpoint: mean survival time, dose: 12.5 mg/kg/injection, schedule: Q01DX009 (ip), vehicle: acetone): 3 of 6 | survivor count (T/C endpoint: mean survival time, dose: 25.0 mg/kg/injection, schedule: Q04DX003 (ip), vehicle: acetone): 6 of 6 | survivor count (T/C endpoint: mean survival time, dose: 50.0 mg/kg/injection, schedule: Q04DX003 (ip), vehicle: acetone): 0 of 6

N=C(N)SC1c2cc(Cl)ccc2-c2c(Cl)cc(Cl)cc21 (centres undefined)
survivor count (T/C endpoint: mean survival time, dose: 400.0 mg/kg/injection, schedule: Q01DX001 (ip), vehicle: carboxymethylcellulose (CMC)): 0 of 4

COc1ccc(C[C@H](N)C(=O)NC2C(CO)OC(n3cnc4c(N(C)C)ncnc43)C2O)cc1 (some centres undefined)
survivor count (T/C endpoint: median survival time, dose: 400.0 mg/kg/injection, schedule: Q04DX003 (ip), vehicle: saline): 5 of 8

CC(=O)Nc1cccc(OCCC(=O)O)c1
survivor count (T/C endpoint: mean survival time, dose: 200.0 mg/kg/injection, schedule: Q01DX Z (ip), vehicle: methylcellulose (MC)): 6 of 6 | survivor count (T/C endpoint: mean survival time, dose: 300.0 mg/kg/injection, schedule: Q01DX Z (ip), vehicle: methylcellulose (MC)): 6 of 6 | survivor count (T/C endpoint: mean survival time, dose: 450.0 mg/kg/injection, schedule: Q01DX Z (ip), vehicle: methylcellulose (MC)): 6 of 6 | survivor count (T/C endpoint: mean survival time, dose: 675.0 mg/kg/injection, schedule: Q01DX Z (ip), vehicle: methylcellulose (MC)): 6 of 6

CN(C)c1ccc(/C=C\c2cc(/C=C/c3ccc(N(C)C)cc3)c([N+](=O)[O-])cc2[N+](=O)[O-])cc1
survivor count [7]: 6 of 6

CC1=CC(O)Nc2c(CBr)cccc21 (centres undefined)
survivor count (T/C endpoint: mean survival time, dose: 100.0 mg/kg/injection, schedule: Q01DX009 (ip), vehicle: saline with Tween-80): 0 of 6 | survivor count [9]: 6 of 6 | survivor count [10]: 0 of 6

CC(=O)c1ccc(NC(=S)Nc2ccc(C(C)=O)cc2)cc1
survivor count (T/C endpoint: mean survival time, dose: 160.0 mg/kg/injection, schedule: Q01DX009 (ip), vehicle: saline with Tween-80): 6 of 6

COc1ccc(OC)c(NC(=O)Nc2cc(Cl)ccc2C)c1
survivor count [2]: 2 of 6

CCCOC(=O)C#CC(=O)OCCC
survivor count (T/C endpoint: mean survival time, dose: 1.56 mg/kg/injection, schedule: Q01DX009 (ip), vehicle: carboxymethylcellulose (CMC)): 3 of 3 | survivor count (T/C endpoint: mean survival time, dose: 12.5 mg/kg/injection, schedule: Q04DX002 (ip), vehicle: carboxymethylcellulose (CMC)): 5 of 6 and 3 of 3 | survivor count (T/C endpoint: mean survival time, dose: 25.0 mg/kg/injection, schedule: Q04DX002 (ip), vehicle: carboxymethylcellulose (CMC)): 0 of 3 and 1 of 6 | survivor count (T/C endpoint: mean survival time, dose: 50.0 mg/kg/injection, schedule: Q04DX002 (ip), vehicle: carboxymethylcellulose (CMC)): 0 of 3 and 0 of 6

CC(C)N1CCOC1c1ccccc1 (centres undefined)
survivor count [10]: 3 of 6

O=C1C(=O)C(CCc2ccccc2)C(=O)/C1=C\c1ccccc1 (centres undefined)
survivor count [6]: 2 of 6

CSc1ccc2c(c1)N(CCC1CCCCN1C)c1ccccc1S2 (centres undefined)
survivor count (T/C endpoint: mean survival time, dose: 25.0 mg/kg/injection, schedule: Q01DX009 (ip), vehicle: saline): 1 of 6 | survivor count (T/C endpoint: mean survival time, dose: 50.0 mg/kg/injection, schedule: Q01DX009 (ip), vehicle: saline): 0 of 6 | survivor count (T/C endpoint: mean survival time, dose: 100.0 mg/kg/injection, schedule: Q04DX003 (ip), vehicle: saline): 2 of 6 | survivor count [9]: 0 of 6 | survivor count [10]: 2 of 6

Source: PubChem BioAssay AID248 (DTP/NCI, 2004)
